Reference: US8569282B2
The match of structure and compound is tentative.

Amino acid sequences for entries named in this document (tags omitted). Residues count along the entry.
UniProt P41597, 1-360 isoform 2: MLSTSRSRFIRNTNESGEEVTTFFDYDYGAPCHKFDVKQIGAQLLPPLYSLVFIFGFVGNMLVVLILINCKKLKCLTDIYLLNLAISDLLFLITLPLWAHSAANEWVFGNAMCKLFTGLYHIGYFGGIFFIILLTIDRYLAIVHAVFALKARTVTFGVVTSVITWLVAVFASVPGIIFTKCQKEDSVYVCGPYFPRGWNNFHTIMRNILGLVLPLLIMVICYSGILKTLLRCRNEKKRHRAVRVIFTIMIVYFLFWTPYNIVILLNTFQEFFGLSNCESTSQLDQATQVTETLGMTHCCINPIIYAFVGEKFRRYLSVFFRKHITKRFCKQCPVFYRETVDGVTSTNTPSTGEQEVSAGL

Molecular target: CCR2b (Homo sapiens, UniProt P41597)
Assay: AequoScreen CCR2b Ca++ flux assay (antagonist mode)
Conditions: read-out: IC50 (μM) Ca^++ flux; AequoScreen CCR2b (FAST-060A) cells; inhibition of reference agonist MCP-1; tested form: TFA salt

Row | IC50 [µM] | SMILES
1 | < 0.2 | CCn1c(=O)oc2cc(CN3CCC(COC)(C(=O)N4CCc5ncc(C(F)(F)F)cc5C4)C3)ccc21 (centres unmarked)
2 | < 0.2 | COCC1(C(=O)N2CCc3ncc(C(F)(F)F)cc3C2)CCN(Cc2cc3oc(=O)n(C)c3cc2Br)C1 (centres unmarked)
